One molecule from the supplement of paper PMC8728848 can be followed below.

This is one part of the list.

Holding throughout (test): glycan array binding signal (z-score within array); higher = stronger binding
Details in all cases: glycan notation: IUPAC condensed, linker removed

Assay [1] has as its target Neu5Gc(a2-8)Neu5Gc(a2-3)Gal(b1-4)GlcNAc(b1-3)Gal(b1-4)GlcNAc. The essentials:
(§1)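 Arrays were curated from the Consortium for Functional Glycomics database, 3228 in total, and kept only where the protein sequence was available. Binding is expressed as a within-array Z-score. This score was averaged across arrays of the same protein sequence at different concentrations or buffers and across linkers, and negative values can be read as non-binding.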

Assay [2] addresses Neu5Gc(a2-8)Neu5Gc(a2-6)Gal(b1-4)GlcNAc. The essentials: as §1
Assay [3] deals with Neu5Gc(b2-6)Gal(b1-4)GlcNAc. The gist of the method: as §1

B1: LlpA (Burkholderia cenocepacia) (protein)
chain: MGSSHHHHHHSSGLVPRGSHKILGSNETLSAGNVVYSDNGQYHLAMQTDGNLVVYGPTGAVWQSQTSGSGGNRAVMQGDGNLVIYRADNTAAWSSKTAHPGAFLAVQDDGNVVIYWPRPAWASNTSDPATQQSAESKYLASGSTMSAGQTVTVAQYMLVFQADGNLVLYKNGGNPIWSTGTQGKGATYAVMQSDGNFVIYAGSTALWSTKTNGANGAQLVLQSDGNLVIYAPTAAWSTKFGLVTAPTSTSTSNNGPGSGICVGVCPPHPLNGNPFSPVGVGTTGLGFPTPGYPGAAF
Turning to B1, the entries for the “glycan array binding signal (z-score)” value in assay [1], in assay [2] and in assay [3] were -1.22, 0.117 and 0.828, respectively.
